# In PubChem BioAssay AID504834 (National Center for Advancing Translational Sciences (NCATS), 2011):
# The campaign covered roughly 320,000 compounds. About 22,000 (6.9%) were called active. The shares of active, inactive and inconclusive entries below differ from those in the screen. Calls follow the shape of the dose curve; as a rule, active = well fitted inhibition curve with a large enough effect; inconclusive = small, poorly fitted or top-dose-only effect, or another doubt; inactive = no such curve, though single readings can be large or run the other way. Potencies of inconclusive entries are doubtful fits and often do not repeat.
# Assay: Primary qHTS for delayed death inhibitors of the malarial parasite plastid, 96 hour incubation
# Conditions: P. falciparum luciferase reporter growth; series mostly up to 28.7 µM
# In short: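 Erythrocytes infected with luciferase-expressing P. falciparum were dispensed at 2% hematocrit and 0.05% parasitemia (final), then incubated with compounds 96 hours at 37 C in 5% CO2. Luminescence after detection reagent addition reported growth.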
# % is scaled to controls: 0 for no effect and ±100 for the full control effect; potency is read from the fitted curve at half-maximal effect.
SMILES,Potency,"activity change, negative = inhibition"
CCOC(=O)c1sc(-c2ccc(C(F)(F)F)cc2)nc1O,"inconclusive: 10.4 µM [inhibitor, single point]",–
COc1cc(/C=N/NC(=O)c2ccc(COc3ccccc3Cl)o2)cc(Br)c1O,"inconclusive: 13.1 µM [inhibitor, partial curve]",–
Cc1ccc(OCC(=O)N/N=C/C=C/c2ccco2)cc1,"inconclusive: 1.04 µM [inhibitor, full curve]",–
COC(=O)c1sccc1NC(=O)CSc1nnnn1-c1ccccc1C,"inconclusive: 1.04 µM [inhibitor, partial curve, poor fit]",–
CC(C)c1ccc(OCC(=O)Nc2ccc(OC(F)(F)F)cc2)cc1,"inconclusive: 4.15 µM [inhibitor, single point]",–
O=C(O)c1ccc(N=c2oc3cc(O)ccc3cc2C(=O)NCc2ccccc2)cc1,"inconclusive: 18.5 µM [inhibitor, single point]",–
COc1cc(OC)cc(C(=O)Nc2ncn[nH]2)c1,"inconclusive: 2.33 µM [inhibitor, full curve]",–
O=C(N/N=C/c1ccccc1O)C1SCCCS1,"inconclusive: 10.4 µM [inhibitor, single point]",–
O=C(NC1CCCCC1)c1ccc(CS(=O)(=O)Cc2ccccc2F)o1,"inconclusive: 1.65 µM [inhibitor, partial curve, poor fit]",–
COc1ccccc1Oc1c(C)oc2c(CN3CCN(CCO)CC3)c(O)ccc2c1=O,inactive,–
COc1ccc(CCNC(=O)c2cccc(S(=O)(=O)N3CCOCC3)c2)cc1OC,"inconclusive: 18.5 µM [inhibitor, single point]",–
Cn1c(=O)c2c(nc(CN3CCN(C(c4ccccc4)c4ccccc4)CC3)n2CC(N)=O)n(C)c1=O,"inconclusive: 1.04 µM [inhibitor, full curve]",–
COc1ccc(C(O)(C2CCCCC2)C(CN2CCOCC2)c2ccccc2)cc1 (stereo not given),inactive,–
O=[N+]([O-])c1cc([N+](=O)[O-])c(Oc2cncc(Cl)c2)cc1NC1CCCCCCC1,"inconclusive: 18.5 µM [inhibitor, single point]",–
CCN(CC)C(C(=O)NC1CCCCC1)c1ccc(C)cc1 (stereo not given),"inconclusive: 18.5 µM [inhibitor, single point]",–
Cc1nc2ccc(S(=O)(=O)c3ccc4nc(C)[nH]c4c3)cc2[nH]1,"inconclusive: 20.8 µM [inhibitor, partial curve, poor fit]",–
CN1CCN(S(=O)(=O)c2ccc(Cl)cc2)CC1,active: 1.85 µM,–
CC(=O)c1cc2c(ccc3ccccc32)oc1=O,active: 2.33 µM,–
O=C(O)CN1C(=O)SC(Nc2ccccc2)C1=O (stereo not given),"inconclusive: 11.7 µM [inhibitor, single point]",–
CCc1nc(SCC(=O)NC2CCCC2)c2oc3ccccc3c2n1,"inconclusive: 18.5 µM [inhibitor, single point]",–
CC1CCN(C(=O)NC(=O)c2ccc(Cl)cc2)CC1,inactive,–
COc1cc(Nc2c3ccccc3nc3ccccc23)cc(OC)c1OC,"inconclusive: 14.7 µM [inhibitor, partial curve, poor fit]",–
CCOC(=O)c1cnc(SCC(=O)Nc2ccc(NC(=O)CC)c(OC)c2)nc1N,"inconclusive: 0.586 µM [inhibitor, full curve, poor fit]",–
CC(C)N(C(C)C)S(=O)(=O)c1ccc(NC(=O)c2cnccn2)cc1,"inconclusive: 16.5 µM [inhibitor, single point]",–

SMILES,Potency,"activity change, negative = inhibition"
O=C(CCN1C(=O)C2C3CCC(C3)C2C1=O)Nc1ccc([N+](=O)[O-])cc1 (stereo not given),inactive,–
CCCCC[n+]1ccn(C2=C([O-])c3ccccc3C(=O)/C2=N\S(=O)(=O)c2ccc(Br)cc2)c1,"inconclusive: 1.47 µM [inhibitor, full curve, poor fit]",–
CN1CCN(c2ccc([N+](=O)[O-])cc2C(=O)N2CCCCC2)CC1,active: 11.7 µM,–
Cc1nn(Cc2ccc(Cl)cc2)c(C)c1NC(=O)c1noc2c1CCc1ccccc1-2,inactive,–
O=C(COc1ccc(Br)cc1Cl)NC(=O)Nc1ccc2c(c1)OCCO2,–,inactive: 33.6% [at 5.75 µM]
CCCCn1c(N)c(N(CCC(C)C)C(=O)CSc2nnc(Nc3ccccc3)s2)c(=O)[nH]c1=O,"inconclusive: 9.28 µM [inhibitor, partial curve, poor fit]",–
COc1ccccc1N1CCN(/N=C/c2c(C)nn(-c3ccccc3)c2C)CC1,"inconclusive: 18.5 µM [inhibitor, single point]",–
CC(C)Oc1ccc(CNC(=O)Cn2c(=O)oc3ccccc32)cc1,"inconclusive: 14.7 µM [inhibitor, partial curve, poor fit]",–
Cn1c(SCc2ccccc2Cl)nc2c1c(=O)[nH]c(=O)n2C,"inconclusive: 18.5 µM [inhibitor, single point]",–
CC(Cc1nnc(N)s1)c1ccccc1 (stereo not given),inactive,–
O=S(=O)(O)CCCS(=O)(=O)O,inactive,–
Cc1cc(C)c(N2C(=O)CCCC2=O)c(Cl)c1,"inconclusive: 18.5 µM [inhibitor, single point]",–
O=C(O)C(Cc1ccccc1)Nc1ccc([N+](=O)[O-])cc1[N+](=O)[O-] (stereo not given),active: 6.57 µM,–
COc1ccc(C(=O)C2CCCN(C(=O)c3cccc(N(C)C)c3)C2)cc1OC (stereo not given),inactive,–
Cc1ccn2c(=O)nc(SCC(=O)N3N=C(c4cccs4)CC3c3ccc(F)cc3)nc2c1 (stereo not given),active: 4.65 µM,–
CC(=O)N1c2c(cc(Br)cc2S(=O)(=O)NCc2cccnc2)CC1C (stereo not given),inactive,–
O=C(Cc1cccc(NC(=O)C2CCCN(C(=O)C3CCC3)C2)c1)Nc1cccc(C(=O)N2CCCC2)c1 (stereo not given),active: 2.33 µM,–
CC1(C)Oc2ccc3ccc(=O)oc3c2/C(=C/NNC(N)=O)C1=O,inactive,–
O=C(c1ccc(CSc2ccccc2)cc1)N1CCCCCC1,"inconclusive: 11.7 µM [inhibitor, single point]",–
CC(=O)Nc1ccccc1-c1nc2ccc(C(=O)N3CCN(c4cccc(C)c4)C(C)C3)cc2[nH]c1=O (stereo not given),active: 6.57 µM,–
Cc1ccc(C(=O)N2CCN(c3ccc(NC(=O)c4cc(C)cc(C)c4)cc3)CC2)cc1,"inconclusive: 10.4 µM [inhibitor, single point]",–
O=S(=O)(NC(=NC1CCCCC1)c1ccccc1F)c1ccccc1,inactive,–
Cc1cccc2sc(N(CCN(C)C)C(=O)C3CCN(S(=O)(=O)c4cccs4)CC3)nc12,"inconclusive: 2.62 µM [inhibitor, full curve, poor fit]",–
COc1ccc(CC(=O)Nc2ccc(C)c(S(=O)(=O)N3CCCCCC3)c2)cc1,inactive,–

# Taken from above.
# For Potency, Cc1ccc(C(=O)N2CCN(c3ccc(NC(=O)c4cc(C)cc(C)c4)cc3)CC2)cc1 shows inconclusive: 10.4 µM [inhibitor, single point]
# For Potency, Cc1cccc2sc(N(CCN(C)C)C(=O)C3CCN(S(=O)(=O)c4cccs4)CC3)nc12 shows inconclusive: 2.62 µM [inhibitor, full curve, poor fit]
# For Potency, O=C(NC1CCCCC1)c1ccc(CS(=O)(=O)Cc2ccccc2F)o1 shows inconclusive: 1.65 µM [inhibitor, partial curve, poor fit]
# For Potency, Cc1ccn2c(=O)nc(SCC(=O)N3N=C(c4cccs4)CC3c3ccc(F)cc3)nc2c1 (stereo not given) shows active: 4.65 µM
# For Potency, CC(=O)N1c2c(cc(Br)cc2S(=O)(=O)NCc2cccnc2)CC1C (stereo not given) shows inactive

# Later entries

SMILES,Potency,"activity change, negative = inhibition"
O=[N+]([O-])c1cncc([N+](=O)[O-])c1Nc1cccc(O)c1,"inconclusive: 18.5 µM [inhibitor, single point]",–
CC1=C(C)CC(C(=O)NCCCN2CCCC2=O)C(C(=O)O)C1 (stereo not given),"inconclusive: 7.38 µM [inhibitor, partial curve, poor fit]",–
CCCC(=O)N(Cc1cc(=O)[nH]c2ccccc12)c1ccc(C)cc1,"inconclusive: 11.7 µM [inhibitor, partial curve]",–
C=CCOc1ccc(/C=C/C(=O)OCC(=O)NCC(=O)Nc2c(C)cc(C)cc2C)cc1,inactive,–
CCOC(=O)N1CCC(NC(=O)C(NC(=O)C2CCCCC2)C(C)C)CC1 (stereo not given),"inconclusive: 8.28 µM [inhibitor, single point]",–
Cc1cc(C)c(C)c(S(=O)(=O)NCC(=O)N2CCCC2)c1C,inactive,–
Cn1nc([N+](=O)[O-])nc1Oc1ccccc1C(=O)N1CCOCC1,"inconclusive: 0.037 µM [inhibitor, full curve]",–
CCCCCC(=O)Nc1ccc2oc(-c3cccnc3)nc2c1,"inconclusive: 13.1 µM [inhibitor, single point]",–
CC(=O)Nc1ccccc1-c1nc2cc(C#N)c(C#N)cc2[nH]c1=O,inactive,–
COc1ccc(CC(=O)Oc2ccc(F)cc2)cc1,inactive,–
Cc1ccc(S(=O)(=O)Nc2ccc3c(c2)CCC3)cc1,"inconclusive: 18.5 µM [inhibitor, single point]",–
CCOC(=O)c1cc2nc(-c3ccccc3)cc(C)n2n1,"inconclusive: 11.7 µM [inhibitor, single point]",–
Cc1ccc(C)c(C(C)NC(=O)C2CCCO2)c1 (stereo not given),"inconclusive: 18.5 µM [inhibitor, single point]",–
CCC(=O)Nc1nc(OC)cc(OC)n1,"inconclusive: 18.5 µM [inhibitor, single point]",–
O=C(C1CC(c2ccc(F)cc2)=NO1)N1CCN(Cc2ccccc2)CC1 (stereo not given),"inconclusive: 0.0033 µM [inhibitor, full curve, poor fit]",–
CCOC(=O)CCSc1nc(C)c2cc(C)c(C)cc2n1,inactive,–
CCCCn1c(SCC(=O)Nc2ccc3c(c2)CCC3)nc2ccccc2c1=O,"inconclusive: 5.22 µM [inhibitor, partial curve, poor fit]",–
COc1ccc(NC(=O)/C(C#N)=C/c2cc(C)n(-c3ccc(N4CCOCC4)c([N+](=O)[O-])c3)c2C)cc1,"inconclusive: 1.65 µM [inhibitor, full curve, poor fit]",–
CSc1ccccc1NC(=O)CN(C)CC(=O)Nc1cccc(Br)c1,"inconclusive: 18.5 µM [inhibitor, single point]",–
O=C1CSC(c2ccccc2)N1Cc1ccccc1 (stereo not given),"inconclusive: 3.29 µM [inhibitor, single point]",–
Cc1nn(Cc2ccccc2Cl)c(C)c1C(=O)NCC(c1cccs1)N1CCOCC1 (stereo not given),inactive,–
COc1cc2[nH]c(=S)n(Cc3ccc(C)cc3)c(=O)c2cc1OC,active: 10.4 µM,–
